Source: PubChem BioAssay AID540275 (National Center for Advancing Translational Sciences (NCATS), 2011)
Hit rate of the full screen: of about 320,000 compounds, about 620 (0.19%) were called active. Inconclusive means that the source gave no clear call. Such entries were picked first, then a sample of the others. Rule as the data show it: active = activation above about 80%; inconclusive = between about 30% and that limit; inactive = weaker than that.

Protein sequences, listed by entry. Tags and fused reporters are not part of them.
UniProt Q8NER1, whole entry, looked up: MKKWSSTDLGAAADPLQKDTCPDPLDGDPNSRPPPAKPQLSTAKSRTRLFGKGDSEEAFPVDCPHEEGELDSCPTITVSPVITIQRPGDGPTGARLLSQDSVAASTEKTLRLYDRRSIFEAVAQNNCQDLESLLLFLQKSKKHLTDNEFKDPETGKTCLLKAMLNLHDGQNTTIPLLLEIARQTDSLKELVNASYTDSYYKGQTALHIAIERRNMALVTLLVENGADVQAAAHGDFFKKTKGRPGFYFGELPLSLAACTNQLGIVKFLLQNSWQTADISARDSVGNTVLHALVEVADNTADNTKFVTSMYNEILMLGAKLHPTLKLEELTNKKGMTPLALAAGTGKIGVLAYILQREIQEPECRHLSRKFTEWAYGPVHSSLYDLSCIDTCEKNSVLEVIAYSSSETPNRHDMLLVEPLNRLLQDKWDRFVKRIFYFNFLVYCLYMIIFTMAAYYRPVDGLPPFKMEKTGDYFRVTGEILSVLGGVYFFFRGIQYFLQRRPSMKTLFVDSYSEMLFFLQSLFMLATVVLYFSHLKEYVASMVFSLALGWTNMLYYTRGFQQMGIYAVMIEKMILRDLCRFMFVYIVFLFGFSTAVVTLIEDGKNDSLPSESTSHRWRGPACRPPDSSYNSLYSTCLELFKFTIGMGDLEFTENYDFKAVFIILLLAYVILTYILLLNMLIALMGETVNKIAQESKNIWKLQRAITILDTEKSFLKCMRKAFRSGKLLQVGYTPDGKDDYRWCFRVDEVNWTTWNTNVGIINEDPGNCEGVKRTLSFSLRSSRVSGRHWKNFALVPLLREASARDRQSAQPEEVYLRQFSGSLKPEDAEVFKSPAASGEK

target: Transient receptor potential cation channel subfamily V member 1 (Homo sapiens) (UniProt Q8NER1); assay: HTS Assay for Compounds that Act as Agonists of the Vanilloid Receptor 1; details: TRPV1-expressing cells, Fluo-8 calcium influx, agonist mode; at 8.33 µM, hits give high values; also: 0% is about no effect
Method in brief: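 Cells expressing TRPV1 were dye-loaded with Fluo-8 and read kinetically: 10 s baseline, 3 min after compound (agonist portion), then 2 min after EC20 capsaicin (allosteric enhancer portion). Calcium-bound dye fluorescence at 480/520 nm.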

Row | Compound | activation
1 | Cc1c(C(=O)N(Cc2ccc(N(C)C)cc2)C2CCS(=O)(=O)C2)oc2ccccc12 (stereo unspecified) | inconclusive: 32.8%
2 | Cc1ccc(Nc2ncnc3c2oc2ccccc23)cc1 | active: 93.5%
3 | NCCCn1c(C(=O)c2cc(Cl)c(N)c(Cl)c2)c2ccc([N+](=O)[O-])cc2[n+]1[O-] | inactive: 8.03%
4 | O=S(=O)(Nc1ccc(-c2nc3cccnc3s2)cc1)c1cc(F)ccc1F | inactive: -0.607%
5 | Cc1ccc(NC(=O)Nc2ccccc2)c(Br)c1 | inconclusive: 51.6%
6 | CCNC(=S)N1CCN(CC(=O)Nc2ccc(Br)cc2)CC1 | inconclusive: 74.7%
7 | COc1ccccc1CNC(=O)c1ccccc1OCc1ccc(F)cc1 | inconclusive: 53.7%
8 | O=C(NCc1n[nH]c(=S)n1-c1cccc(Cl)c1)c1ccc(S(=O)(=O)N2CCCC2)cc1 | inactive: 0.0331%
9 | COc1ccc(Br)cc1CN(C)C(=O)CNC(=O)c1ccc2ccccc2c1 | inactive: -2.31%
10 | CCOC(=O)C1=C(c2ccccc2)OC(N)=C(C#N)C1c1ccc(Br)s1 (stereo unspecified) | inconclusive: 39%
11 | O=C1/C(=C\c2c(NCCOCCO)nc3ccccn3c2=O)SC(=S)N1Cc1ccco1 | inactive: 13.1%
12 | CCC(=O)c1cn([C@H](CCC(OC)OC)CC(=O)OC(C)(C)C)cc1CC | inconclusive: 31.6%
13 | Clc1ccc(OCc2nc3ccccc3[nH]2)cc1 | inconclusive: 66%
14 | NS(=O)(=O)c1ccc(CNC(=S)NCc2ccc(F)cc2)cc1 | inconclusive: 35.2%
15 | COc1ccc(NC(=O)c2cc3ccccc3o2)cn1 | inconclusive: 45.1%
16 | O=C(NCCc1ccncc1)Nc1ccccc1 | inactive: 4.73%
17 | COc1ccc(C(=O)NCC2OCCc3ccccc32)cc1 (stereo unspecified) | inconclusive: 45.2%
18 | Cc1cc(C(=O)CSc2n[nH]c(N)n2)c(C)n1-c1cc(F)ccc1F | inconclusive: 53.6%
19 | O=C(COc1ccc(Br)cc1CO)Nc1ccc(S(=O)(=O)N2CCCCC2)cc1 | inactive: 3.66%
20 | Cc1csc(NC(=O)c2ccco2)n1 | inactive: 1.44%
21 | COc1ccc2[nH]c(C)c(CCNC(=S)Nc3cccc(C)c3)c2c1 | inconclusive: 33.3%
22 | CCC(=O)c1ccc(OCC(O)Cn2c(C)nc3ccccc32)cc1 (stereo unspecified) | inactive: 1.44%
23 | O=C(/C=C/c1ccc([N+](=O)[O-])cc1)NCCc1ccccc1 | inconclusive: 33.6%

Row | Compound | activation
24 | Brc1ccc(OCc2ccccc2)c(CNCc2ccncc2)c1 | inconclusive: 36%
25 | Cc1onc(-c2ccccc2)c1C(=O)OCC(=O)N1CCC(C)CC1 | inconclusive: 41.9%
26 | COC(=O)c1ccc(C(=O)OC)c(NC(=O)CN(C)Cc2ccccc2)c1 | inconclusive: 44.4%
27 | O=C(COc1ccccc1)Nc1ccc2[nH]ncc2c1 | inconclusive: 38.3%
28 | O=C(CCN1C(=O)/C(=C/c2ccccc2Cl)SC1=S)N1CCOCC1 | inconclusive: 63.8%
29 | Cc1ccc(NC(=O)Cn2nnc3ccccc3c2=O)cc1C | inactive: 0.565%
30 | Cc1cc(C)n(-c2ccc(NC(=O)C3CCCCN3Cc3cccc4c3OCO4)cc2)n1 (stereo unspecified) | inactive: 5.43%
31 | COc1cc(/C=C/C(=O)NC(C)C)ccc1OCc1ccccc1 | inconclusive: 32.6%
32 | COc1ccccc1NC(=S)N(CCN1CCOCC1)Cc1ccccc1F | inactive: 9.41%
33 | CCN(CC(=O)Nc1ccccc1C(F)(F)F)C(=O)c1ccccc1Cc1ccccc1 | inconclusive: 33.9%
34 | CCOC(=O)N1CCN(S(=O)(=O)c2ccc(C(=O)NNc3nc4c(C)cccc4s3)cc2)CC1 | inactive: 0.0075%
35 | O=C(CCc1ccc(S(=O)(=O)N2CCOCC2)cc1)Oc1ccccc1 | inconclusive: 32.2%
36 | N#C/C(=C/c1ccc(-c2ccccc2)o1)c1nc(-c2cccs2)cs1 | inactive: 10.5%
37 | CC(C)(C)c1ccc(-c2cn(-c3ccc(Br)cc3)c3[n+]2CCCS3)cc1 | inactive: 4.28%
38 | CC(=O)Nc1ccc(Nc2ncnc3c2cnn3-c2ccc(C)cc2C)cc1 | active: 87.4%
39 | CCC(=O)NC(Nc1cc(C)cc(C)n1)(C(F)(F)F)C(F)(F)F | inactive: 1.53%
40 | O=C1C2CCCCN2C(=O)N1CCCCN1CCN(c2cccc(Cl)c2)CC1 (stereo unspecified) | inactive: -0.118%
41 | COc1ccc2nc(NC(=O)C34CC5CC(CC(NC(C)=O)(C5)C3)C4)sc2c1 | inconclusive: 75.9%
42 | COc1cccc(C(=O)OCc2cc(=O)oc3c(C)c(C)ccc23)c1OC | inconclusive: 51.2%
43 | Cc1cc2c(N)cccc2nn1 | inactive: -7.66%
44 | Cc1noc(C)c1CSCC(=O)N(C)CC(=O)Nc1ccc(Cl)cc1 | inactive: 1.13%
45 | CCCc1ccc(C2=Nn3c(nnc3C(C)C)SC2)cc1 | inconclusive: 30.9%
46 | COc1ccc(S(=O)(=O)Nc2ccccc2C(=O)Nc2nc(-c3ccc(F)cc3)cs2)cc1OC | inactive: 2.3%

Structures above containing a thiophene ring, fused or not, in the order listed:
Row | Compound | activation
10 | CCOC(=O)C1=C(c2ccccc2)OC(N)=C(C#N)C1c1ccc(Br)s1 (stereo unspecified) | inconclusive: 39%
36 | N#C/C(=C/c1ccc(-c2ccccc2)o1)c1nc(-c2cccs2)cs1 | inactive: 10.5%
